Data: PMC12904725
No constants are given. Whether binding was seen depends on the method and setting. Binding seen in cells or lysates may run through a third protein. Some results given as binding are weak or reduced against the parent protein; the word gives no strength.

Amino acid sequences for entries named in this document (tags omitted).
UniProt O15550: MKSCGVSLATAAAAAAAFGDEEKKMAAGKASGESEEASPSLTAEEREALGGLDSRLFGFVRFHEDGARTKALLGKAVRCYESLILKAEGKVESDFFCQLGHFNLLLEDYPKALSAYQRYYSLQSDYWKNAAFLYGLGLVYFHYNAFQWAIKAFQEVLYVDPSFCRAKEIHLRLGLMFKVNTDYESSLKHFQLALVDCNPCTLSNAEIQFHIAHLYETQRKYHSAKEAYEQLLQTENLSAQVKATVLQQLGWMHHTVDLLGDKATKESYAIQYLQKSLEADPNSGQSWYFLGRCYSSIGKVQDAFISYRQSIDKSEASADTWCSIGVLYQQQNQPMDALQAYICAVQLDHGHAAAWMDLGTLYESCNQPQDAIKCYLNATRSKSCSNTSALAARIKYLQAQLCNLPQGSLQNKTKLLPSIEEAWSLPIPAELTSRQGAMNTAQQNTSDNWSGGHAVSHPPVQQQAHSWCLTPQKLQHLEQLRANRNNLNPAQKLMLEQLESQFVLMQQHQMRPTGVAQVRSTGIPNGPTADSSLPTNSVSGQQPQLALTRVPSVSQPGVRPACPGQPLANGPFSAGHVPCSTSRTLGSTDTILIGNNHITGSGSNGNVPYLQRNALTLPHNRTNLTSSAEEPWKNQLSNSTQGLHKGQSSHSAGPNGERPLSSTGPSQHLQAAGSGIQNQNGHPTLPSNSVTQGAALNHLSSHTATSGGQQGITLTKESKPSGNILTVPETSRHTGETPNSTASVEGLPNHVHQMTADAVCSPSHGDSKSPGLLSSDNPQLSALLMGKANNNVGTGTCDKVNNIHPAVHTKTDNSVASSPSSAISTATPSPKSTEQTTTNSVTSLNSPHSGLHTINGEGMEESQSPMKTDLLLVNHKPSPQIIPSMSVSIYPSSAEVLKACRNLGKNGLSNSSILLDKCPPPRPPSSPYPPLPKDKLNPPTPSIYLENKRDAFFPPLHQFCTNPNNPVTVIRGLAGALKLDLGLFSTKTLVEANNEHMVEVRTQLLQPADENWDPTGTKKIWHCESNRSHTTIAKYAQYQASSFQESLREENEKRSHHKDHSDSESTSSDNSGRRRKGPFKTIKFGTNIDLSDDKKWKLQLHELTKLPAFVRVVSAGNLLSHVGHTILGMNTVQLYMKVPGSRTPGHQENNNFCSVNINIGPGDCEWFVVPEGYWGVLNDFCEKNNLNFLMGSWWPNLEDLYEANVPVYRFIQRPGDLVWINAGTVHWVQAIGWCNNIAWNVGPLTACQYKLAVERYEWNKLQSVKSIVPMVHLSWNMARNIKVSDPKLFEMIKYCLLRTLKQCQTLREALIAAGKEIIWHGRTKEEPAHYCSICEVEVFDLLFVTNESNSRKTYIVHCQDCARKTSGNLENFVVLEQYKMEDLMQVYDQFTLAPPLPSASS
UniProt P36402: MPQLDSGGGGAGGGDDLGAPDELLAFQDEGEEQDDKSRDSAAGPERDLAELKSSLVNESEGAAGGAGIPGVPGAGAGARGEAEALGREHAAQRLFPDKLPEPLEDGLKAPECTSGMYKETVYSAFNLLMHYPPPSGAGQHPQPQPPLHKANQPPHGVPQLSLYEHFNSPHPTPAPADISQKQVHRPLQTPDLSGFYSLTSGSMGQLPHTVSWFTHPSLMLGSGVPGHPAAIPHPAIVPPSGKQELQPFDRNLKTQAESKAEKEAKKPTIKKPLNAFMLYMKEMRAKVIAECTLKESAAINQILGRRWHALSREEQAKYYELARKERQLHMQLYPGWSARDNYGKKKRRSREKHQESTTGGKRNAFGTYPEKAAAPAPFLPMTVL
UniProt P40763: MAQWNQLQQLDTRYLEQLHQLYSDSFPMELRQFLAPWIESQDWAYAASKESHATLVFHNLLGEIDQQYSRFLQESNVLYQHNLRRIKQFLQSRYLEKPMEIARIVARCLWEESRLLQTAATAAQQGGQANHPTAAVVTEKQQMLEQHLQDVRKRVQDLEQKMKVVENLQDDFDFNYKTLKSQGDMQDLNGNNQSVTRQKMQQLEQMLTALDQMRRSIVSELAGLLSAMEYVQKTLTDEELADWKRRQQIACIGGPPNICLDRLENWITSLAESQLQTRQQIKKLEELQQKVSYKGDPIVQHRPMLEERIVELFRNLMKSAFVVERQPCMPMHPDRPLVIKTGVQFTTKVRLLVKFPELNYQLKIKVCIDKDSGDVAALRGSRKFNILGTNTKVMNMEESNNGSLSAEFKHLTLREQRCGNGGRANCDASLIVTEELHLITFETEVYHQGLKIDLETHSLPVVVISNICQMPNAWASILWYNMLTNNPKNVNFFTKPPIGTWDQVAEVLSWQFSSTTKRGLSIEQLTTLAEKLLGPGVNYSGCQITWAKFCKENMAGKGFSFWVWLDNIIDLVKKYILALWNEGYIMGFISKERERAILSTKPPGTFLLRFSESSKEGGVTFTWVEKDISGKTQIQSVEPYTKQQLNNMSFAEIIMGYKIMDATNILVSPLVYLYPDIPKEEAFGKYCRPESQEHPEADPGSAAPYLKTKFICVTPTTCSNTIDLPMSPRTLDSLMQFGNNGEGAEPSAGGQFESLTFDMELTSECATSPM

Key:
[1] = target: Flag-tag UTX (ubiquitously transcribed tetratricopeptide repeat, X chromosome; encoded by KDM6A) (UniProt O15550); assay: co-IP; HEK-293T cells cotransfected with the two tagged constructs, harvested 24 h later, Nuclear Complex Co-IP Kit, 500 ug total protein, anti-FLAG M2 magnetic beads overnight, 6 washes, Western blot (HA and FLAG antibodies); empty Flag construct as control for STAT3
[2] = target: endogenous UTX protein (human (endogenous in Jurkat)) (UniProt O15550); assay: co-IP; Jurkat nuclear protein lysate (Nuclear Complex Co-IP Kit), 500 ug total protein, 7 ug UTX antibody overnight at 4 C, Protein A 1 h, 6 washes, Western blot; rabbit IgG as negative control

Substance	binding [1]	binding [2]
HA-Tag TCF1 (from UniProt P36402 1-384)	binds	
STAT3 (endogenous, Jurkat) (from UniProt P40763 1-770)		binds
TCF1 (endogenous, Jurkat) (from UniProt P36402 1-384)		binds
